Results deposited as PubChem BioAssay AID743454 (Peter MacCallum Cancer Centre, 2014).
Screen: 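Search for knock-downs that restore vorinostat killing in resistant colon cancer cells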 (primary screen). Cells: human HCT116-VR colon cancer cells, selected for vorinostat resistance. Knock-down reagent: siRNA pool against human genes, 40 nM siRNA pool. Time to read-out: vorinostat for 24 h, read-out about 72 h after transfection. Treatment: vorinostat at 2.5 µM final. Measured: 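Two measures, CellTiter-Fluor viability and luminescent caspase 3/7 activity, each as fold change against same-plate mock wells, mean of duplicates, then screen-wide robust z-score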. Scale: viability robust z-score: higher = more viable cells than screen typical; caspase robust z-score: higher = more caspase 3/7 activity than screen typical. Active means: 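Hits are knock-downs in viability class RV1/RV2 or caspase class CA1/CA2, excluding ones that killed cells in the no-drug cell-count arm; hits then retested with single siRNAs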.
Shown is a random part of about 18,000 deposited reagents. 450 of all reagents (2.5%) were called active. 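Single biological run; no consistent viability z cut-off exists, so the class columns, not z-scores, define the calls.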

What is on record for PPFIA1 (GeneID 8500)?
viability hit class: no change; caspase hit class: no change; viability robust z-score: 0.86; caspase robust z-score: 0.09; activity call: inactive

How did the screen score CERS5 (GeneID 91012)?
viability hit class: no change; caspase hit class: no change; viability robust z-score: 0.64; caspase robust z-score: -1.21; activity call: inactive

How did the screen score CDC7 (GeneID 8317)?
viability hit class: no change; caspase hit class: no change; viability robust z-score: 0.78; caspase robust z-score: 1.08; activity call: inactive

With IL17F (GeneID 112744), what does the deposit list?
viability hit class: no change; caspase hit class: no change; viability robust z-score: -0.04; caspase robust z-score: -0.52; activity call: inactive

For CHM (GeneID 1121), how do the results read?
viability hit class: no change; caspase hit class: no change; viability robust z-score: -0.24; caspase robust z-score: 0.05; activity call: inactive

Part of the list above in another layout.
| Gene | viability hit class | caspase hit class | viability robust z-score | caspase robust z-score | activity call |
| --- | --- | --- | --- | --- | --- |
| PPFIA1 (GeneID 8500) | no change | no change | 0.86 | 0.09 | inactive |
| CERS5 (GeneID 91012) | no change | no change | 0.64 | -1.21 | inactive |

Next records follow:
For NCCRP1 (GeneID 342897), what does the deposit list?
viability hit class: no change; caspase hit class: no change; viability robust z-score: -1.36; caspase robust z-score: 1.4; activity call: inactive

For VIRMA (GeneID 25962), what was measured?
viability hit class: no change; caspase hit class: no change; viability robust z-score: -1.26; caspase robust z-score: -0.9; activity call: inactive

With XRN1 (GeneID 54464), what does the deposit list?
viability hit class: no change; caspase hit class: no change; viability robust z-score: 1.12; caspase robust z-score: -0.36; activity call: inactive

Which result is listed for HSF4 (GeneID 3299)?
viability hit class: no change; caspase hit class: no change; viability robust z-score: -1.21; caspase robust z-score: 0.5; activity call: inactive

Which result is listed for OR9K2 (GeneID 441639)?
viability hit class: no change; caspase hit class: no change; viability robust z-score: -0.81; caspase robust z-score: -0.4; activity call: inactive

How did the screen score LDAH (GeneID 60526)?
viability hit class: no change; caspase hit class: no change; viability robust z-score: 0.88; caspase robust z-score: -0.68; activity call: inactive

What did the screen give for TUBGCP3 (GeneID 10426)?
viability hit class: no change; caspase hit class: no change; viability robust z-score: -2.29; caspase robust z-score: 4.53; activity call: inactive

What is on record for HKDC1 (GeneID 80201)?
viability hit class: no change; caspase hit class: no change; viability robust z-score: 0.02; caspase robust z-score: -0.06; activity call: inactive

What did the screen give for CRABP1 (GeneID 1381)?
viability hit class: no change; caspase hit class: no change; viability robust z-score: -2.71; caspase robust z-score: 3.2; activity call: inactive
